Data: doi:10.1101/2025.04.25.650548
Results are given in words; binding and its absence hold for the method and conditions named. In cells and extracts the contact can be indirect. Some binding calls cover weakened binding; strength is not graded here.

Amino acid sequences for entries named in this document (tags omitted). A change or cut given only in a name is not applied to a line headed by its entry.
UniProt Q9UKA4: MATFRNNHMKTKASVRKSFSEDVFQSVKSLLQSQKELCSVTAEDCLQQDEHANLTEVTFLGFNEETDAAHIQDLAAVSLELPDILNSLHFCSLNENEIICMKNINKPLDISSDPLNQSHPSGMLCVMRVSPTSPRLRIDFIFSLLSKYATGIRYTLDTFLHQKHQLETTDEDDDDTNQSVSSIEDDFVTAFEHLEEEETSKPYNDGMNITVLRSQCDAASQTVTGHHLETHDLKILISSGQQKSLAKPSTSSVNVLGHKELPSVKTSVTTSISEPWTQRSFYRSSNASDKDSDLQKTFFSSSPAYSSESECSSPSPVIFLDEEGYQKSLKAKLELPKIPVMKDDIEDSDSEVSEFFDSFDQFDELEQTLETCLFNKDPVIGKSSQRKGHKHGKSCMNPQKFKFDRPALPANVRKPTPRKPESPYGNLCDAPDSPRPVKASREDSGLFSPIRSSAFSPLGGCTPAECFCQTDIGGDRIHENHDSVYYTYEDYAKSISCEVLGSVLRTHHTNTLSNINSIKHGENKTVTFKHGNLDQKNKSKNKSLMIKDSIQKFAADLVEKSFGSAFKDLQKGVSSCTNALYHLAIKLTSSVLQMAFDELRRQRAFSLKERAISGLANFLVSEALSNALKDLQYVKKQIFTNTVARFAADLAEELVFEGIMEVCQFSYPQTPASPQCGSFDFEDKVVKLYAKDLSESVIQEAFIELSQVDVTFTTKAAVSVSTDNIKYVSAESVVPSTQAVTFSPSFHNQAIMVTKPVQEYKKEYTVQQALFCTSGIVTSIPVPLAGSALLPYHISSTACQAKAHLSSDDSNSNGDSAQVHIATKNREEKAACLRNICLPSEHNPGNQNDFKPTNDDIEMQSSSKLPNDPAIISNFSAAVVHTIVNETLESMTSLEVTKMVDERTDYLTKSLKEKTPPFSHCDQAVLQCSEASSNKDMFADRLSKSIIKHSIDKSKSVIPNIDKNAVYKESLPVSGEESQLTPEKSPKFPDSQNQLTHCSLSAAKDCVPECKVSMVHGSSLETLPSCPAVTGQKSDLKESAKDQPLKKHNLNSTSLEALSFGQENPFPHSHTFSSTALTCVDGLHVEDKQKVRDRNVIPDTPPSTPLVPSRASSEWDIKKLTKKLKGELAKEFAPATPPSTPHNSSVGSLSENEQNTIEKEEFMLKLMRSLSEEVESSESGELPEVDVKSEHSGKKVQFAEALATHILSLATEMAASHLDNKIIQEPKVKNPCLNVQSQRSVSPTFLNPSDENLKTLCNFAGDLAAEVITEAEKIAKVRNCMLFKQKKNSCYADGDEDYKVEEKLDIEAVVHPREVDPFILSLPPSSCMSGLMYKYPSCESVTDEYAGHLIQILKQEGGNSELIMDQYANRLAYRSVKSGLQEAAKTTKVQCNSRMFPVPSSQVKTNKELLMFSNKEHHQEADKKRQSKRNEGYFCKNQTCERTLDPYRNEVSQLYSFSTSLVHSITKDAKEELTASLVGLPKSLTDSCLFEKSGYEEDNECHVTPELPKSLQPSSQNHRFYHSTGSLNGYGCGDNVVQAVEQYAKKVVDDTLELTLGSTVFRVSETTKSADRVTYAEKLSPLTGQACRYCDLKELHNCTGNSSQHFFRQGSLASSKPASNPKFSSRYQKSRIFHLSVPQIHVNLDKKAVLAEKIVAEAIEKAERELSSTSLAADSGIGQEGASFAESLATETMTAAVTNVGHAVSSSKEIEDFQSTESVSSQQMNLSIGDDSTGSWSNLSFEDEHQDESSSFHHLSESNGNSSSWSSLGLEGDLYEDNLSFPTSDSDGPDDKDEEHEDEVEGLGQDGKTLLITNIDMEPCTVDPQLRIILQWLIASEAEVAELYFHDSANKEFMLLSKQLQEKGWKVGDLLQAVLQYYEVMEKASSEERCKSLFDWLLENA
UniProt P10644: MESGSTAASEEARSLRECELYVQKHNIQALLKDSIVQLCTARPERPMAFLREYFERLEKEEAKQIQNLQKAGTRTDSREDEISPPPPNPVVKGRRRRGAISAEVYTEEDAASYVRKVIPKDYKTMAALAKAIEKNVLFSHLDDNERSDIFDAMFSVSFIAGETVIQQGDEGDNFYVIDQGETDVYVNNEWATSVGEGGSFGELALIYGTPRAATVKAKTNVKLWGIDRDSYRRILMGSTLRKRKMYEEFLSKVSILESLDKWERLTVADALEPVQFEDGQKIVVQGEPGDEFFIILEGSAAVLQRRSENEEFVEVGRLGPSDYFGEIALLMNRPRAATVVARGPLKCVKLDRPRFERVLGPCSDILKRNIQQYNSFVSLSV
UniProt O95292: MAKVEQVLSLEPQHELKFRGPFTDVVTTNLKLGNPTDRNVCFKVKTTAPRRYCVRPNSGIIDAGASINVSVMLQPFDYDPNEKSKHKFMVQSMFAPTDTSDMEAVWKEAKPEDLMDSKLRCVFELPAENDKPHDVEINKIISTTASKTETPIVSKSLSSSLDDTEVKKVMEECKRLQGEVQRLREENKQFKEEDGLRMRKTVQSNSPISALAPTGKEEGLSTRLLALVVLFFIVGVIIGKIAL

Key:
Test in all cases: co-IP
[1] = molecular target: human AKAP11-EGFP (human) (UniProt Q9UKA4)
EGFP-AKAP11 (human) = EGFP-AKAP11 (human) (UniProt Q9UKA4)
[2] = molecular target: EGFP-AKAP11-D360A (human) (UniProt Q9UKA4)
[3] = molecular target: EGFP-AKAP11-D357A (human) (UniProt Q9UKA4)
[4] = molecular target: EGFP-AKAP11-E354A/D357A/D360A (human) (UniProt Q9UKA4)
[5] = molecular target: EGFP-AKAP11-E354A (human) (UniProt Q9UKA4)

Row | binding [1] | binding (EGFP-AKAP11 (human)) | binding [2] | binding [3] | binding [4] | binding [5] | Molecule
1 | binds |  |  |  |  |  | PKA R1-α (PRKAR1A) (from UniProt P10644 1-381)
2 | binds | binds | binds | binds | binds weakly | binds | vesicle-associated membrane protein-associated protein VAP-B (from UniProt O95292 1-243)
3 | binds | binds | binds | binds | binds | binds | ABCD3/PMP70 (protein, UniProt P28288 1-659) MAAFSKYLTARNSSLAGAAFLLLCLLHKRRRALGLHGKKSGKPPLQNNEKEGKKERAVVDKVFFSRLIQILKIMVPRTFCKETGYLVLIAVMLVSRTYCDVWMIQNGTLIESGIIGRSRKDFKRYLLNFIAAMPLISLVNNFLKYGLNELKLCFRVRLTKYLYEEYLQAFTYYKMGNLDNRIANPDQLLTQDVEKFCNSVVDLYSNLSKPFLDIVLYIFKLTSAIGAQGPASMMAYLVVSGLFLTRLRRPIGKMTITEQKYEGEYRYVNSRLITNSEEIAFYNGNKREKQTVHSVFRKLVEHLHNFILFRFSMGFIDSIIAKYLATVVGYLVVSRPFLDLSHPRHLKSTHSELLEDYYQSGRMLLRMSQALGRIVLAGREMTRLAGFTARITELMQVLKDLNHGKYERTMVSQQEKGIEGVQVIPLIPGAGEIIIADNIIKFDHVPLATPNGDVLIRDLNFEVRSGANVLICGPNGCGKSSLFRVLGELWPLFGGRLTKPERGKLFYVPQRPYMTLGTLRDQVIYPDGREDQKRKGISDLVLKEYLDNVQLGHILEREGGWDSVQDWMDVLSGGEKQRMAMARLFYHKPQFAILDECTSAVSVDVEGYIYSHCRKVGITLFTVSHRKSLWKHHEYYLHMDGRGNYEFKQITEDTVEFGS
